In US20190137523A1 (Hoffmann-La Roche, published 2019):
These are yes or no findings as the source states them, for the method shown. Some binding calls cover weakened binding; strength is not graded here.

How the values were obtained:
[1] = target: T1, VEGF-A 121 (Peprotech), dimeric (human, UniProt P15692-9 27-147); assay: Biacore T200, 75 nM injected onto VEGF-A 121 displayed by and saturated with rH-4.6.1-IgG
T1 construct: also called VEGF121
T1 sequence (looked up): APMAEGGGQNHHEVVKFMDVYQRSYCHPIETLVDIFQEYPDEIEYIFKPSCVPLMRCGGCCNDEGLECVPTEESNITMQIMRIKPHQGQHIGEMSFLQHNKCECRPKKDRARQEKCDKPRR

[2] = target: T1, VEGF-A 121 (Peprotech), dimeric; assay: Biacore T200 epitope binning on dimeric VEGF-A 121
[3] = target: T1, VEGF-A 121 (Peprotech), dimeric; assay: SPR (Biacore T200), consecutive injections. VEGF-A 121 is displayed by captured rH-4.6.1-IgG (Avastin) and saturated again with rH-4.6.1-IgG. Setup as printed: rH-4.6.1-IgG*VEGF-A*rH4.6.1*Ab1*Ab2
Description: The sample buffer was the system buffer supplemented with 1 mg/ml CMD (Carboxymethyldextran, Sigma #86524). The system operated at 25° C.

Measured: binding

B1: 13.2.5-F(ab')2-Bi (antibody, V domains shown)
VH: DVRLQESGPDLVKPSQSLSLTCTVTGYSITRAYNWHWIRQFPGNKLEWMGYILYSGTTDYNPSLKSRISFTRDTSKNQLILQLDSVTTDDTGTYYCARAGYDGGMDYWGQGVSVTVSS
VL: DIQMTQSPASLSASVGETVTITCGASENIYGGLTWYQRRRGKSPQLLIYGASNLADGMSSRFTGSGSGRQFSLKISGVHPDDVATYYCQNVFTTPYTFGGGTRLEIKR
binds: [1] | [2] | [3]
